{"source": "patent US20210010053A1", "about": "“ASSAYS FOR IMPROVING AUTOMATED ANTIMICROBIAL SUSCEPTIBILITY TESTING ACCURACY” (SELUX DIAGNOSTICS, INC., priority 2019, published 2021)", "experiment": "solution pH monitoring after addition of imipenem", "type": "physicochemical", "settings": "250 μg/mL added to unbuffered 0.01875 mg/mL fluorescein sodium salt, 0.5 mM zinc sulfate solution (starting pH approximately 6.7); within 5 minutes", "note": "At least one structure is not confirmed: it was looked up by name or label, or the drawing left a doubt."}
{"compound": "C[C@@H](O)[C@H]1C(=O)N2C(C(=O)O)=C(SCCN=CN)C[C@H]12", "note": "[imipenem]", "values": [{"measurement": "solution pH upon addition of imipenem", "result": "< 5"}]}
